Measured values taken from PMC3819348.
No constants are given. Whether binding was seen depends on the method and setting. Some binding calls cover weakened binding; strength is not graded here.

Sequences of proteins named here, by UniProt entry; tags and fusion partners are left off.
UniProt Q9SK03: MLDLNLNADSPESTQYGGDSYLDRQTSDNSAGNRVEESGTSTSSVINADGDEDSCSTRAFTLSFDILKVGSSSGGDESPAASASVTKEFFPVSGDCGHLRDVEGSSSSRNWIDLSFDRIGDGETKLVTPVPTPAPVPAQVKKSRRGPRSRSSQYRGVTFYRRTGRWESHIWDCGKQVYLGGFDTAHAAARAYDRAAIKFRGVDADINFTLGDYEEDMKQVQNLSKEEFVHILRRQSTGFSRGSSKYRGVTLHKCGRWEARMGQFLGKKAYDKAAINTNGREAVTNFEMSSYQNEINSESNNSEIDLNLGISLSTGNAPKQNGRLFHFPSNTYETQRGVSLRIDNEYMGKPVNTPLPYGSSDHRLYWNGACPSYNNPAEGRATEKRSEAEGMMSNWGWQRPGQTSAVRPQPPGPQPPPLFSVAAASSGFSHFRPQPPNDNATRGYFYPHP
UniProt Q93WU6: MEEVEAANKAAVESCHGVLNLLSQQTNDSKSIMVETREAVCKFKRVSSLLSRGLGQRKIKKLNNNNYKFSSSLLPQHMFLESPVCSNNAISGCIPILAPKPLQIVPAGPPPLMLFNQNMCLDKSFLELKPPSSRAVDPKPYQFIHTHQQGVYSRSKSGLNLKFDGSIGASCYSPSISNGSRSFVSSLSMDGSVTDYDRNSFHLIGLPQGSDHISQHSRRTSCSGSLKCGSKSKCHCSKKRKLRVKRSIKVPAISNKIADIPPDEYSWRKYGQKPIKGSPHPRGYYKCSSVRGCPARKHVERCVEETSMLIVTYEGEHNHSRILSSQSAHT

Biological target: TOE1 (Target of EARLY ACTIVATION TAGGED 1) (Arabidopsis thaliana) (UniProt Q9SK03)
Test: two-hybrid; pGBKT7-TOE1 as bait in Y2H Gold, pGADT7-WRKY as prey in Y187, mated; spotted on SD/-Leu/-Trp/-His/-Ade/X-alpha-gal/AbA agar, 30°C; empty pGBKT7 as control

binding	Molecule
no binding	WRKY74 (from UniProt Q93WU6 1-330)
no binding	WRKY20 (protein, UniProt Q93WV0-1 1-557) MNPQANDRKEFQGDCSATGDLTAKHDSAGGNGGGGARYKLMSPAKLPISRSTDITIPPGLSPTSFLESPVFISNIKPEPSPTTGSLFKPRPVHISASSSSYTGRGFHQNTFTEQKSSEFEFRPPASNMVYAELGKIRSEPPVHFQGQGHGSSHSPSSISDAAGSSSELSRPTPPCQMTPTSSDIPAGSDQEESIQTSQNDSRGSTPSILADDGYNWRKYGQKHVKGSEFPRSYYKCTHPNCEVKKLFERSHDGQITDIIYKGTHDHPKPQPGRRNSGGMAAQEERLDKYPSSTGRDEKGSGVYNLSNPNEQTGNPEVPPISASDDGGEAAASNRNKDEPDDDDPFSKRRRMEGAMEITPLVKPIREPRVVVQTLSEVDILDDGYRWRKYGQKVVRGNPNPRSYYKCTAHGCPVRKHVERASHDPKAVITTYEGKHDHDVPTSKSSSNHEIQPRFRPDETDTISLNLGVGISSDGPNHASNEHQHQNQQLVNQTHPNGVNFRFVHASPMSSYYASLNSGMNQYGQRETKNETQNGDISSLNNSSYPYPPNMGRVQSGP
binds	WRKY44 (protein, UniProt Q9ZUU0 1-429) MEVNDGERVVIAKPVASRPSSSSGFRTFTELLTDSVTVSPQTTCHEIVDAAIRPKTLRFNQPVAASVSCPRAEVKGIGNGMSCDDDSDSRNYVVYKPKAKLVSKATVSALANMLQGNRQQTWRQSEAVSYGKSVSQGTHRAGPNLVQKVPSFTESETSTGDRSSVDGYNWRKYGQKQVKGSECPRSYYKCTHPKCPVKKKVERSVEGQVSEIVYQGEHNHSKPSCPLPRRASSSISSGFQKPPKSIASEGSMGQDPNNNLYSPLWNNQSNDSTQNRTEKMSEGCVITPFEFAVPRSTNSNPGTSDSGCKSSQCDEGELDDPSRSKRRKNEKQSSEAGVSQGSVESDSLEDGFRWRKYGQKVVGGNAYPRSYYRCTSANCRARKHVERASDDPRAFITTYEGKHNHHLLLSPPSSSTLPFNSPQLSKQTI
